The values that follow come from the supplement of paper PMC12542422.

Where a name gives a salt, the structure may show the parent alone. ± gives the standard deviation of the averaged measurements. This is one part of the list. Values are raw readings; no control value is given beside them.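 HeLa cells imaged for ribosome-assembly readouts (ENP1 staining with or without export block, or inducible tagged ribosomal protein reporters); machine learning classified each cell's signal location against solvent (DMSO) controls. Hits exceeded the DMSO false-positive mean by five standard deviations, then were visually confirmed; three biological replicates.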

This experiment concerns HeLa K (ENP1 immunofluorescence, +LMB). The experiment is described as follows: fraction of cells with nucleolar or nucleolar/nucleoplasmic ENP1 signal (MainHitrate); higher = more cells with nucleolar/nuclear readout signal (for ENP1 -LMB: less RNAPI inhibition; for +LMB ENP1 and RP reporters: stronger nuclear/nucleolar retention, i.e. ribosome biogenesis defect). As to conditions: concentration: 1 µM; treatment time: 6 h; ENP1 +LMB; leptomycin B: 20 nM, last 1.5 h.
Turning to `CCCCCCCCCCCCCCCCCCCCCCO` [Docosanol (Abreva)], the fraction worked out at 0.165 ± 0.22.

As to `Clc1ccc2nsnc2c1NC1=NCCN1` [Tizanidine HCl], the fraction came out at 0.0706 ± 0.07.

`COc1cc(C(=O)NS(=O)(=O)c2ccccc2C)ccc1Cc1cn(C)c2ccc(NC(=O)OC3CCCC3)cc12` [Zafirlukast (Accolate)] displayed a fraction of 0.0838 ± 0.078.

As to `Cc1nc(-c2ccc(OCC(C)C)c(C#N)c2)sc1C(=O)O` [Febuxostat (Uloric)], the fraction is 0.0519 ± 0.048.

Molecule `COc1nc(N)nc2c1ncn2[C@@H]1O[C@H](CO)[C@@H](O)[C@@H]1O` [Nelarabine (Arranon)] gave a fraction of 0.0562 ± 0.049.

`S=c1[nH]cnc2nc[nH]c12` [Mercaptopurine] returned a fraction of 0.0784 ± 0.058.

On to `Cc1ccc(-c2cc(C(F)(F)F)nn2-c2ccc(S(N)(=O)=O)cc2)cc1` [Celecoxib], for which the fraction came out at 0.125 ± 0.16.

In turn, `O=C(Nc1ccc([N+](=O)[O-])cc1Cl)c1cc(Cl)ccc1O` [Niclosamide (Niclocide)] came in with a fraction of 0.151 ± 0.24.

For the molecule `CCCCCCCCCC(=O)N[C@H]1[C@H](Oc2c3cc4cc2Oc2ccc(cc2Cl)[C@@H](O[C@@H]2O[C@H](CO)[C@@H](O)[C@H](O)[C@H]2NC(C)=O)[C@@H]2NC(=O)[C@H](NC(=O)[C@@H]4NC(=O)[C@H]4NC(=O)[C@@H](Cc5ccc(c(Cl)c5)O3)NC(=O)[C@H](N)c3ccc(O)c(c3)Oc3cc(O)cc4c3)c3ccc(O)c(c3)-c3c(OC4O[C@H](CO)[C@@H](O)[C@H](O)[C@@H]4O)cc(O)cc3[C@@H](C(=O)O)NC2=O)O[C@H](CO)[C@@H](O)[C@@H]1O` (some centres undefined) [Teicoplanin], the fraction is 0.0966 ± 0.12.

Take `O=C(Nc1c(Cl)cncc1Cl)c1ccc(OC(F)F)c(OCC2CC2)c1` [Roflumilast (Daxas)]: the fraction came to 0.129 ± 0.18.

For the molecule `C[C@@H](O)[C@H]1C(=O)N2C(C(=O)O)=C(S[C@@H]3CN[C@H](CNS(N)(=O)=O)C3)[C@H](C)[C@H]12` [Doripenem Hydrate], the fraction stood at 0.112 ± 0.098.

For the molecule `Cc1c(OCC(F)(F)F)ccnc1C[S+]([O-])c1nc2ccccc2[nH]1` (centres undefined) [Lansoprazole], the fraction is 0.071 ± 0.052.

`COc1ccc2cccc(CCNC(C)=O)c2c1` [Agomelatine] yielded a fraction of 0.081 ± 0.057.

As for `O=C(O)c1ccc(NC(=O)[C@H](Cc2ccc(O)cc2)NC(=O)c2ccccc2)cc1` [Bentiromide], the fraction is 0.135 ± 0.16.

The molecule `CS(=O)(=O)Nc1ccc([N+](=O)[O-])cc1Oc1ccccc1` [Nimesulide] had a fraction of 0.0986 ± 0.12.

Molecule `OC[C@@H](O)[C@@H](O)[C@H](O)[C@@H](O)CO` [Sorbitol (Glucitol)] returned a fraction of 0.133 ± 0.2.

For the molecule `CCn1cc(C(=O)O)c(=O)c2cc(F)c(N3CCNCC3)cc21` [Norfloxacin (Norxacin)], the fraction was 0.075 ± 0.059.

With `C=C1/C(=C\C=C2/CCC[C@]3(C)[C@@H]([C@H](C)CCCC(C)(C)O)CC[C@@H]23)C[C@@H](O)C[C@@H]1O` [Calcitriol (Rocaltrol)], the fraction was determined as 0.067 ± 0.027.

`N=C(N)Nc1ccc(C(=O)Oc2ccc3cc(C(=N)N)ccc3c2)cc1` [Nafamostat mesylate] showed a fraction of 0.106 ± 0.14.

`COC(=O)C1=C(C)NC(C)=C(C(=O)OCC(C)C)C1c1ccccc1[N+](=O)[O-]` (centres undefined) [Nisoldipine (Sular)] gave a fraction of 0.144 ± 0.12.

In turn, `CCOc1ccccc1OC(c1ccccc1)C1CNCCO1` (centres undefined) [Reboxetine mesylate] gave a fraction of 0.0986 ± 0.14.

Consider `COc1cc(C(C)=O)ccc1OCCCN1CCC(c2noc3cc(F)ccc23)CC1` [Iloperidone (Fanapt)], for which the fraction was 0.0705 ± 0.067.

`CCC(C)(C)c1ccc(CC(C)CN2C[C@@H](C)O[C@@H](C)C2)cc1` (some centres undefined) [Amorolfine Hydrochloride] gave a fraction of 0.0955 ± 0.079.

Molecule `Clc1ccc(CSC(Cn2ccnc2)c2ccc(Cl)cc2Cl)cc1` (centres undefined) [Sulconazole Nitrate] yielded a fraction of 0.0677 ± 0.085.

For `CC(=O)OCC(=O)NCCCOc1cccc(CN2CCCCC2)c1` [Roxatidine acetate HCl], the fraction stood at 0.115 ± 0.17.

As to `Nc1nc(=O)c2c([nH]1)NC[C@H](CNc1ccc(C(=O)N[C@@H](CCC(=O)O)C(=O)O)cc1)N2C=O` [Calcium levofolinate (Calcium Folinate)], the fraction worked out at 0.0887 ± 0.11.

In turn, `Cn1nnc2c(C(N)=O)ncn2c1=O` [Methazolastone] registered a fraction of 0.0917 ± 0.11.

Molecule `CCCc1nn(C)c2c(=O)[nH]c(-c3cc(S(=O)(=O)N4CCN(C)CC4)ccc3OCC)nc12` [Sildenafil citrate] gave a fraction of 0.0911 ± 0.12.

Consider `Cc1c(N(C)C)c(=O)n(-c2ccccc2)n1C` [Amidopyrine], for which the fraction is 0.135 ± 0.2.

`C[C@]12C=CC(=O)C=C1CC[C@H]1[C@@H]3C[C@@H](O)[C@](O)(C(=O)CO)[C@@]3(C)C[C@H](O)[C@@]12F` [Triamcinolone (Aristocort)] had a fraction of 0.188 ± 0.29.

For the molecule `CCCCCCCN(CC)CCCC(O)c1ccc(NS(C)(=O)=O)cc1` (centres undefined) [Ibutilide fumarate], the fraction turned out to be 0.0965 ± 0.13.

In turn, `CN(C)CCC(c1ccc(Cl)cc1)c1ccccn1` (centres undefined) [Chlorpheniramine Maleate] yielded a fraction of 0.0526 ± 0.067.

Turning to `CNCCC(Oc1ccc(C(F)(F)F)cc1)c1ccccc1` (centres undefined) [Fluoxetine  HCl], the fraction is 0.0832 ± 0.071.

As for `COc1cc(/C=C/C(=O)N2CCN(CC(=O)N3CCCC3)CC2)cc(OC)c1OC` [Cinepazide maleate], the fraction amounted to 0.0607 ± 0.077.

Regarding `CCOc1cc(N)c(Cl)cc1C(=O)NCC1CN(Cc2ccc(F)cc2)CCO1` (centres undefined) [Mosapride citrate], the fraction came to 0.192 ± 0.25.

As for `CC1(C)S[C@@H]2[C@H](NC(=O)[C@H](NC(=O)N3CCNC3=O)c3ccccc3)C(=O)N2[C@H]1C(=O)O` [Azlocillin sodium salt], the fraction worked out at 0.0991 ± 0.14.

On to `CS(=O)(=O)c1ccc(C2=C(c3ccccc3)C(=O)OC2)cc1` [Rofecoxib (Vioxx)], for which the fraction amounted to 0.0851 ± 0.13.

In the case of `COc1c(N2C[C@@H]3CCCN[C@@H]3C2)c(F)cc2c(=O)c(C(=O)O)cn(C3CC3)c12` [Moxifloxacin hydrochloride], the fraction was 0.0633 ± 0.02.

`COc1cc2c(cc1O)CC[C@@H]1[C@@H]2CC[C@]2(C)[C@@H](O)CC[C@@H]12` [2-Methoxyestradiol] came in with a fraction of 0.113 ± 0.14.
